Measured values published in PMC3243699.

Chains of the proteins cited; added tags and fusions are not shown. A line that says so, or that is headed by a name, gives the form on record, which may keep a tag or linker.
UniProt P32442, whole entry Q219E: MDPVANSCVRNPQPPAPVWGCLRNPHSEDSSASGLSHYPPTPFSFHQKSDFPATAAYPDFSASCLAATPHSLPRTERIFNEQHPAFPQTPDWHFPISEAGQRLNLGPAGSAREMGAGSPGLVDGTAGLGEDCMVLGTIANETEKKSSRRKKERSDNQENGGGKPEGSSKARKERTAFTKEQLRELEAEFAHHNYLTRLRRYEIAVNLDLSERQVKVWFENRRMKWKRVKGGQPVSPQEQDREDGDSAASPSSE
UniProt P50222, whole entry Q236E: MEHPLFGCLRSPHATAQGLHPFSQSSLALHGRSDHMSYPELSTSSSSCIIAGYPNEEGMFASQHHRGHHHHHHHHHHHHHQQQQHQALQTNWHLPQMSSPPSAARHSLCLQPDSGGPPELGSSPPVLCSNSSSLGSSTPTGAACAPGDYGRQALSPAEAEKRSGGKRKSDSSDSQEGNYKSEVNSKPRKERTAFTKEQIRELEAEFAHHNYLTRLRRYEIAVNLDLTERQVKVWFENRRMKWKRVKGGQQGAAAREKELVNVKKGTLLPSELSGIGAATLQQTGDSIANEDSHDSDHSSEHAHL
UniProt P50222, other isoform, or with tags, fused parts or gaps, stated change not applied: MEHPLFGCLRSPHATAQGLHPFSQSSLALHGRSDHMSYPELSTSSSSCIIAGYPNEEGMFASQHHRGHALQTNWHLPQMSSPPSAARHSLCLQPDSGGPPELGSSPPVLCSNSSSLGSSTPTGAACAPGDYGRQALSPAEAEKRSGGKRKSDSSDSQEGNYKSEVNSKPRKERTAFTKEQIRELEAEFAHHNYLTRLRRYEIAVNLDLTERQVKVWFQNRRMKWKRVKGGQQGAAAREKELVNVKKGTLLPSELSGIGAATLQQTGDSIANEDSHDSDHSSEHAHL
UniProt P08515, whole entry: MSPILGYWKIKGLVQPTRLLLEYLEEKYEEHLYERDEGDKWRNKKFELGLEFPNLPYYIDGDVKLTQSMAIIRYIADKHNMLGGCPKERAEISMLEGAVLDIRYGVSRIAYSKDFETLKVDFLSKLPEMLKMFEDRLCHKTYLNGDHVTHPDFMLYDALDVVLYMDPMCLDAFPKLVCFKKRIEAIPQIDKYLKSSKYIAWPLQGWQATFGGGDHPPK

How the values were obtained:
[1] = biological target: FLAG-MEOX1 (HUVEC nuclear extract) (mouse) (UniProt P32442); assay: EMSA; settings: p16 probes: 10 mM Tris pH 7.5, 50 mM KCl, 1 mM DTT, 50 ng/ul poly(dI-dC), 5% glycerol, 0.05% NP-40, 3.5 mM MgCl2, 0.5 mM EDTA, 0.25 mg/ml BSA, 30 min room temperature; protein in an extract; residues 1-253; protein details: N-terminal FLAG; label: biotin end label
[2] = biological target: FLAG-MEOX2 (HUVEC nuclear extract) (human) (UniProt P50222); assay: EMSA; settings: p16 probes: 10 mM Tris pH 7.5, 50 mM KCl, 1 mM DTT, 50 ng/ul poly(dI-dC), 5% glycerol, 0.05% NP-40, 3.5 mM MgCl2, 0.5 mM EDTA, 0.25 mg/ml BSA, 30 min room temperature; protein in an extract; residues 1-304; protein details: N-terminal FLAG; label: biotin end label
[3] = biological target: FLAG-MEOX2 Q235E (HUVEC nuclear extract) Q236E (human) (UniProt P50222); assay: EMSA; settings: p16 probes: 10 mM Tris pH 7.5, 50 mM KCl, 1 mM DTT, 50 ng/ul poly(dI-dC), 5% glycerol, 0.05% NP-40, 3.5 mM MgCl2, 0.5 mM EDTA, 0.25 mg/ml BSA, 30 min room temperature, protein in an extract, residues 1-304, protein details: N-terminal FLAG, label: biotin end label
GST-MEOX1 (mouse) [4] = biological target: GST-MEOX1 (mouse) (UniProt P32442); assay: EMSA; settings: p16 probes: 10 mM Tris pH 7.5, 50 mM KCl, 1 mM DTT, 50 ng/ul poly(dI-dC), 5% glycerol, 0.05% NP-40, 3.5 mM MgCl2, 0.5 mM EDTA, 0.25 mg/ml BSA, 30 min room temperature, recombinant protein, residues 1-253, protein details: N-terminal GST (pET-41a(+)), label: biotin end label
GST-MEOX2 (human) [5] = biological target: GST-MEOX2 (human) (UniProt P50222); assay: EMSA; settings: p16 probes: 10 mM Tris pH 7.5, 50 mM KCl, 1 mM DTT, 50 ng/ul poly(dI-dC), 5% glycerol, 0.05% NP-40, 3.5 mM MgCl2, 0.5 mM EDTA, 0.25 mg/ml BSA, 30 min room temperature, recombinant protein, residues 1-304, protein details: N-terminal GST (pET-41a(+)), label: biotin end label
[6] = biological target: GST-MEOX2 Q235E Q236E (human) (UniProt P50222); assay: EMSA; settings: p16 probes: 10 mM Tris pH 7.5, 50 mM KCl, 1 mM DTT, 50 ng/ul poly(dI-dC), 5% glycerol, 0.05% NP-40, 3.5 mM MgCl2, 0.5 mM EDTA, 0.25 mg/ml BSA, 30 min room temperature, recombinant protein, residues 1-304, protein details: N-terminal GST (pET-41a(+)), label: biotin end label
GST = GST (UniProt P08515); assay: EMSA; settings: p16 probes: 10 mM Tris pH 7.5, 50 mM KCl, 1 mM DTT, 50 ng/ul poly(dI-dC), 5% glycerol, 0.05% NP-40, 3.5 mM MgCl2, 0.5 mM EDTA, 0.25 mg/ml BSA, 30 min room temperature; recombinant protein; label: biotin end label, unlabelled as competitor
[7] = biological target: FLAG-MEOX1 (HUVEC nuclear extract) (mouse) (UniProt P32442); assay: EMSA supershift; settings: anti-FLAG, p16 probes: 10 mM Tris pH 7.5, 50 mM KCl, 1 mM DTT, 50 ng/ul poly(dI-dC), 5% glycerol, 0.05% NP-40, 3.5 mM MgCl2, 0.5 mM EDTA, 0.25 mg/ml BSA, 30 min room temperature, protein in an extract, residues 1-253, protein details: N-terminal FLAG, label: biotin end label, unlabelled as competitor
[8] = biological target: FLAG-MEOX2 (HUVEC nuclear extract) (human) (UniProt P50222); assay: EMSA supershift; settings: anti-FLAG, p16 probes: 10 mM Tris pH 7.5, 50 mM KCl, 1 mM DTT, 50 ng/ul poly(dI-dC), 5% glycerol, 0.05% NP-40, 3.5 mM MgCl2, 0.5 mM EDTA, 0.25 mg/ml BSA, 30 min room temperature, protein in an extract, residues 1-304, protein details: N-terminal FLAG, label: biotin end label, unlabelled as competitor
[9] = biological target: FLAG-MEOX1 (HEK293 nuclear extract) (mouse) (UniProt P32442); assay: EMSA; settings: p16 probes: 10 mM Tris pH 7.5, 50 mM KCl, 1 mM DTT, 50 ng/ul poly(dI-dC), 5% glycerol, 0.05% NP-40, 3.5 mM MgCl2, 0.5 mM EDTA, 0.25 mg/ml BSA, 30 min room temperature; protein in an extract; residues 1-253; protein details: FLAG; label: biotin end label, unlabelled as competitor
[10] = biological target: FLAG-MEOX1 Q220E (HEK293 nuclear extract) Q219E (mouse) (UniProt P32442); assay: EMSA; settings: p16 probes: 10 mM Tris pH 7.5, 50 mM KCl, 1 mM DTT, 50 ng/ul poly(dI-dC), 5% glycerol, 0.05% NP-40, 3.5 mM MgCl2, 0.5 mM EDTA, 0.25 mg/ml BSA, 30 min room temperature; protein in an extract; residues 1-253; protein details: FLAG; label: biotin end label, unlabelled as competitor
[11] = biological target: FLAG-MEOX2 (HEK293 nuclear extract) (human) (UniProt P50222); assay: EMSA; settings: p16 probes: 10 mM Tris pH 7.5, 50 mM KCl, 1 mM DTT, 50 ng/ul poly(dI-dC), 5% glycerol, 0.05% NP-40, 3.5 mM MgCl2, 0.5 mM EDTA, 0.25 mg/ml BSA, 30 min room temperature; protein in an extract; residues 1-304; protein details: FLAG; label: biotin end label, unlabelled as competitor
[12] = biological target: FLAG-MEOX2 H68_Q85del (HEK293 nuclear extract) del69-86 (human) (UniProt P50222); assay: EMSA; settings: p16 probes: 10 mM Tris pH 7.5, 50 mM KCl, 1 mM DTT, 50 ng/ul poly(dI-dC), 5% glycerol, 0.05% NP-40, 3.5 mM MgCl2, 0.5 mM EDTA, 0.25 mg/ml BSA, 30 min room temperature; protein in an extract; residues 1-304; protein details: FLAG; label: biotin end label, unlabelled as competitor
[13] = biological target: FLAG-MEOX2 Q235E (HEK293 nuclear extract) Q236E (human) (UniProt P50222); assay: EMSA; settings: p16 probes: 10 mM Tris pH 7.5, 50 mM KCl, 1 mM DTT, 50 ng/ul poly(dI-dC), 5% glycerol, 0.05% NP-40, 3.5 mM MgCl2, 0.5 mM EDTA, 0.25 mg/ml BSA, 30 min room temperature; protein in an extract; residues 1-304; protein details: FLAG; label: biotin end label, unlabelled as competitor
GST-MEOX1 (mouse) [14] = biological target: GST-MEOX1 (mouse) (UniProt P32442); assay: competition with a labelled probe; settings: vs labelled Proximal probe, protein preparation (recombinant or extract) not stated; p16 probes: 10 mM Tris pH 7.5, 50 mM KCl, 1 mM DTT, 50 ng/ul poly(dI-dC), 5% glycerol, 0.05% NP-40, 3.5 mM MgCl2, 0.5 mM EDTA, 0.25 mg/ml BSA, 30 min room temperature; recombinant protein; residues 1-253; protein details: N-terminal GST (pET-41a(+)); label: none (cold competitor)
GST-MEOX2 (human) [15] = biological target: GST-MEOX2 (human) (UniProt P50222); assay: competition with a labelled probe; settings: p16 probes: 10 mM Tris pH 7.5, 50 mM KCl, 1 mM DTT, 50 ng/ul poly(dI-dC), 5% glycerol, 0.05% NP-40, 3.5 mM MgCl2, 0.5 mM EDTA, 0.25 mg/ml BSA, 30 min room temperature, recombinant protein, residues 1-304, protein details: N-terminal GST (pET-41a(+)), label: none (cold competitor)
[16] = biological target: FLAG-MEOX2 (HUVEC nuclear extract) (human) (UniProt P50222); assay: competition with a labelled probe; settings: vs labelled A6; p16 probes: 10 mM Tris pH 7.5, 50 mM KCl, 1 mM DTT, 50 ng/ul poly(dI-dC), 5% glycerol, 0.05% NP-40, 3.5 mM MgCl2, 0.5 mM EDTA, 0.25 mg/ml BSA, 30 min room temperature; protein in an extract; residues 1-304; protein details: N-terminal FLAG; label: none (cold competitor)

“CTCCCCCGTCCGTATTAAATAAACCTCATC (double strand) [D16WT (p16INK4a Distal)]”: no binding [1]; no binding [2]; no binding [3]. “CTCCCCCGTCCGTATTAAATAAACCTCATC (double strand) [D16WT (p16INK4a Distal)]”: no binding (GST-MEOX1 (mouse) [4]); no binding (GST-MEOX2 (human) [5]); no binding [6].
“GCTTTTTCTTATGATTAAAAGAAGAAGCCA (double strand) [P16WT (p16INK4a Proximal)]”: no binding ([3]; unlabelled as competitor); no binding (GST); binds (GST-MEOX1 (mouse) [4]; unlabelled as competitor). “GCTTTTTCTTATGATTAAAAGAAGAAGCCA (double strand) [P16WT (p16INK4a Proximal)]”: binds (GST-MEOX2 (human) [5]; unlabelled as competitor); no binding ([6]; unlabelled as competitor); binds ([7]; two complexes). “GCTTTTTCTTATGATTAAAAGAAGAAGCCA (double strand) [P16WT (p16INK4a Proximal)]”: binds ([8]; one complex).
“CCCCGATGGCATTACAATTACAGATGACACT (double strand) [A6 (p21CIP1/WAF1)]”: binds [9]; no binding [10]; binds [11]. “CCCCGATGGCATTACAATTACAGATGACACT (double strand) [A6 (p21CIP1/WAF1)]”: binds [12]; no binding [13]; no binding ([3]; unlabelled as competitor). “CCCCGATGGCATTACAATTACAGATGACACT (double strand) [A6 (p21CIP1/WAF1)]”: binds (GST-MEOX1 (mouse) [4]; unlabelled as competitor); binds (GST-MEOX2 (human) [5]; unlabelled as competitor); no binding ([6]; unlabelled as competitor). “CCCCGATGGCATTACAATTACAGATGACACT (double strand) [A6 (p21CIP1/WAF1)]”: binds [7]; binds [8].
“GCTTTTTCTTATGAGGAAAAGAAGAAGCCA (double strand) [P16MT (p16INK4a Proximal mutant)]”: no binding (GST-MEOX1 (mouse) [14]); no binding (GST-MEOX2 (human) [15]; vs labelled Proximal probe, protein preparation (recombinant or extract) not stated).
“CCCCGATGGCAGTACAAGTACAGATGACACT (double strand) [MT11 (p21CIP1/WAF1 mutant)]”: no binding [16]; no binding (GST-MEOX2 (human) [15]; vs labelled A6).

Construct, isoform or probe ends are uncertain for at least one entry. For some of these results: Negatives hold for the conditions tested. For some of these results: Results from cells or extracts need not show a direct contact.
